Results published in PubChem BioAssay AID1347076 (National Center for Advancing Translational Sciences (NCATS), 2019).
In all, about 400,000 compounds went through this assay and about 13,000 (3.2%) were called active. This list was built around the results that the source calls inconclusive (neither active nor inactive); the mix of calls is not that of the screen. The call rests on the fitted dose curve; in most records, active means well fitted cell-killing curve with a large enough effect; inconclusive means small, poorly fitted or top-dose-only effect, or effect the other way; inactive means flat fitted curve, though single readings scatter. Potencies of inconclusive entries are doubtful fits and often do not repeat.

Assay: qHTS assay for MDR1-selective chemotherapeutics: Primary screen using the drug-selected MDR subline cells KB-V1; further: nearly all actives have a fitted effect of over 60% in size
Conditions: KB-V1 MDR cells viability, CellTiter-Glo, 72 h; series mostly up to 46.1 µM
Procedure, shortened: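 Cells of the MDR subline KB-V1 are plated, dosed with compound at multiple concentrations, and incubated 72 h at 37 degrees C; CellTiter-Glo is then added and luminescence read after 10 min.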
Potency means the concentration at half of the fitted maximal effect.

Row | Compound | Potency
1 | CCOC(=O)CSc1nnc(-c2c[nH]c3ccccc23)o1 | inconclusive: 29.1 µM [rising, single point]
2 | CCc1nc(OCc2ccccc2)c2sc3nc4c(cc3c2n1)COC(C)(C)C4 | inconclusive: 20.6 µM [cytotoxic, partial curve, poor fit]
3 | S=c1nc[nH]c2c1ncn2-c1ccccc1 | inconclusive: 32.6 µM [cytotoxic, single point]
4 | O=S(=O)(Cc1ccccc1)N(O)c1ccccc1 | inactive
5 | O=C1CNC(c2ccccc2)C(c2ccccc2)N1 (stereo not given) | inactive
6 | CCOc1cc(/C=C2\C(=O)ON=C2c2ccccc2)cc(Br)c1O | inconclusive: 20.6 µM [cytotoxic, single point]
7 | COc1ccc(-c2csc3ncnc(Oc4cccc5ccc(C)nc45)c23)cc1 | inactive
8 | COC(=O)c1ccc(OC(=O)CS(=O)c2ccccc2[N+](=O)[O-])cc1 (stereo not given) | inactive
9 | CC1(C(=O)O)CCCN(C(=O)c2cccnc2Oc2ccccc2)C1 (stereo not given) | inactive
10 | COc1ccc(N2CCN(C(=O)CSc3ccccc3)CC2)cc1 | inactive
11 | Cc1ccc(C(=O)Nc2ccc(-c3csc(C)n3)cc2)cc1 | inconclusive: 4.61 µM [cytotoxic, full curve]
12 | COc1ccc([C@H]2CC(=O)C=C(c3cc(C)ccc3OC)C2)cc1 | active: 5.8 µM
13 | O=C(Cn1cnc2c(nnn2Cc2ccc(F)cc2)c1=O)NCc1ccccc1 | inconclusive: 25.9 µM [cytotoxic, partial curve, poor fit]
14 | OC[C@@H]1CN(Cc2ccccc2)C[C@H](n2cnc3c(NCc4ccc(F)cc4)ncnc32)O1 | inconclusive: 14.6 µM [cytotoxic, partial curve]
15 | COc1cccc(-c2cnc(C(O)c3ccc(F)c(F)c3)[nH]2)c1 (stereo not given) | inconclusive: 20.6 µM [cytotoxic, partial curve]
16 | NC(=O)c1cc([N+](=O)[O-])ccc1NCc1cccc2ccccc12 | inconclusive: 29.1 µM [cytotoxic, single point]
17 | C[C@]12c3[nH]c4cc(-c5ccco5)ccc4c3CCN1C(=O)[C@@H](CC(=O)NCc1cccc(C(F)(F)F)c1)C[C@@H]2C(=O)N1CCOCC1 | inactive
18 | O=C(NCCc1ccc(Cl)cc1)c1ccc2c(c1)N(Cc1ccccc1)CCS2 | inactive
19 | O=C(CSc1nnc(-c2ccc(Cl)cc2)n1-c1ccc(Cl)cc1)N/N=C/c1ccccc1C(=O)O | inconclusive: 0.0326 µM [rising, full curve]
20 | COc1ccc(NC(=O)CN(C)C(=O)CSCc2ccc(C)cc2)cc1 | inconclusive: 0.366 µM [cytotoxic, full curve]

Two successive compounds out of the list so far, quoted:
Row | Compound | Potency
9 | CC1(C(=O)O)CCCN(C(=O)c2cccnc2Oc2ccccc2)C1 (stereo not given) | inactive
10 | COc1ccc(N2CCN(C(=O)CSc3ccccc3)CC2)cc1 | inactive
